Data from publication PMC12904710.
These are yes or no findings as the source states them, for the method shown. In cells and extracts the contact can be indirect. Some results given as binding are weak or reduced against the parent protein; the word gives no strength. Sequences can lack the tags named with a protein.

T1: Flag-NPRL2 (UniProt Q8WTW4)
T1 sequence: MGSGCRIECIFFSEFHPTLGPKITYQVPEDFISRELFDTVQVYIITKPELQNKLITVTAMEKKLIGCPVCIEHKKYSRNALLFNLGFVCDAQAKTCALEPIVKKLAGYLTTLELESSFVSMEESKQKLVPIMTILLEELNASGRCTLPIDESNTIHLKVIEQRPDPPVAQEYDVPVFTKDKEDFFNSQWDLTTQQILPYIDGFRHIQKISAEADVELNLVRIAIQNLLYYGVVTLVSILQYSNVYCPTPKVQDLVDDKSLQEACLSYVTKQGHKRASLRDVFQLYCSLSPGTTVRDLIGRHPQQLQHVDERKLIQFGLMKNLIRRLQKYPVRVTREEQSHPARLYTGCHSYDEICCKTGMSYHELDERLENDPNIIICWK

T2: Flag-tagged KPTN (human) (UniProt Q9Y664)
T2 sequence: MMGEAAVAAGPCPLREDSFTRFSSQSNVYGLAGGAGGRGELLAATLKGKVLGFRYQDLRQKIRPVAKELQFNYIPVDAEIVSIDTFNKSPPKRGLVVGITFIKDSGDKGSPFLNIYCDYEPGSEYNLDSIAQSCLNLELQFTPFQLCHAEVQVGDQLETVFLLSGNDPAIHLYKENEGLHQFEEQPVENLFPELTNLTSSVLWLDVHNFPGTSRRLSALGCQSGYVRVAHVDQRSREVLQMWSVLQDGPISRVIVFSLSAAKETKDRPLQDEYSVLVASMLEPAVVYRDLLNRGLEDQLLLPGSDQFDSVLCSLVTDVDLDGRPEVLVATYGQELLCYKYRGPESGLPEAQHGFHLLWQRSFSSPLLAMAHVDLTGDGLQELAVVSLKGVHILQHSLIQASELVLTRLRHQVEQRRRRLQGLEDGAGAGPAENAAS

T3: Flag-tagged KPTN-4KR (KPTN-K49/67/262/265R) (human) (UniProt Q9Y664)
T3 sequence: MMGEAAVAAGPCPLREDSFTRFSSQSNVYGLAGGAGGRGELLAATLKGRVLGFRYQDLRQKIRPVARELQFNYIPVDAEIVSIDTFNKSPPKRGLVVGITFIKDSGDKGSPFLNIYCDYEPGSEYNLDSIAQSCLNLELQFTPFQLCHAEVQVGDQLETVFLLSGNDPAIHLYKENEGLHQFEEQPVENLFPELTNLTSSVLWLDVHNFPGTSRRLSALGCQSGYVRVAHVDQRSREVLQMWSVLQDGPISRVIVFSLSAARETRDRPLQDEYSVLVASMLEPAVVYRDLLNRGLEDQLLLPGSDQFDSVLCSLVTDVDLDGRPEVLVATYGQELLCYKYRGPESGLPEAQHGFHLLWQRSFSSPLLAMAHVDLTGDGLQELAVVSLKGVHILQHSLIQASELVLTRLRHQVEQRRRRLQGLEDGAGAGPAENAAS

B1: KPTN (endogenous) (protein, UniProt Q9Y664 1-436)
chain: MMGEAAVAAGPCPLREDSFTRFSSQSNVYGLAGGAGGRGELLAATLKGKVLGFRYQDLRQKIRPVAKELQFNYIPVDAEIVSIDTFNKSPPKRGLVVGITFIKDSGDKGSPFLNIYCDYEPGSEYNLDSIAQSCLNLELQFTPFQLCHAEVQVGDQLETVFLLSGNDPAIHLYKENEGLHQFEEQPVENLFPELTNLTSSVLWLDVHNFPGTSRRLSALGCQSGYVRVAHVDQRSREVLQMWSVLQDGPISRVIVFSLSAAKETKDRPLQDEYSVLVASMLEPAVVYRDLLNRGLEDQLLLPGSDQFDSVLCSLVTDVDLDGRPEVLVATYGQELLCYKYRGPESGLPEAQHGFHLLWQRSFSSPLLAMAHVDLTGDGLQELAVVSLKGVHILQHSLIQASELVLTRLRHQVEQRRRRLQGLEDGAGAGPAENAAS
B2: NPRL2 (construct not told) (protein, UniProt Q8WTW4 1-380)
chain: MGSGCRIECIFFSEFHPTLGPKITYQVPEDFISRELFDTVQVYIITKPELQNKLITVTAMEKKLIGCPVCIEHKKYSRNALLFNLGFVCDAQAKTCALEPIVKKLAGYLTTLELESSFVSMEESKQKLVPIMTILLEELNASGRCTLPIDESNTIHLKVIEQRPDPPVAQEYDVPVFTKDKEDFFNSQWDLTTQQILPYIDGFRHIQKISAEADVELNLVRIAIQNLLYYGVVTLVSILQYSNVYCPTPKVQDLVDDKSLQEACLSYVTKQGHKRASLRDVFQLYCSLSPGTTVRDLIGRHPQQLQHVDERKLIQFGLMKNLIRRLQKYPVRVTREEQSHPARLYTGCHSYDEICCKTGMSYHELDERLENDPNIIICWK

Columns and labels:
[1] = target: T1, Flag-NPRL2; assay: co-IP; anti-Flag magnetic beads on whole cell lysates of HEK293T cells stably expressing Flag-C12orf66 or Flag-NPRL2, with shFBXO2 or increasing HA-FBXO2 (Figure 4A, C, D)
[2] = target: T2, Flag-tagged KPTN (human); assay: co-IP; anti-Flag magnetic beads on whole cell lysates of HEK293T cells transduced with KPTN or KPTN-4KR (Figure 4B with stable HA-C12orf66; Figure 4G)
[3] = target: T3, Flag-tagged KPTN-4KR (KPTN-K49/67/262/265R) (human); assay: as above

| Binder | binding [1] | binding [2] | binding [3] |
| --- | --- | --- | --- |
| B1 | binds |  |  |
| B2 |  | binds | binds |
